These are yes or no findings as the source states them, for the method shown. In cells and extracts the contact can be indirect. Some binding calls cover weakened binding; strength is not graded here.
Tests used:
[1] = molecular target: GST-TWIST1 fusion protein (human) (UniProt Q15672); experiment: pull-down; GST-TWIST1 on glutathione-sepharose beads incubated with 35S-labeled in vitro translated TRIM28 for 2 h at 4 °C; washed five times (20 mM Tris-HCl, 150 mM NaCl, 1 mM DTT, 1 mM EDTA, 0.1% NP-40); only the target purified
[2] = molecular target: Flag-tagged TWIST1 (human) (UniProt Q15672); experiment: co-IP; HEK293 inducible cell line expressing Flag-tagged TWIST1 (DOX); lysis in EBC buffer (20 mM Tris-HCl pH 8.0, 125 mM NaCl, 2 mM EDTA, 0.5% NP-40); anti-Flag M2 agarose beads, 3 h at 4 °C; Western blot with TRIM28 antibody

Sequences of proteins named here, by UniProt entry; tags and fusion partners are left off.
UniProt Q15672: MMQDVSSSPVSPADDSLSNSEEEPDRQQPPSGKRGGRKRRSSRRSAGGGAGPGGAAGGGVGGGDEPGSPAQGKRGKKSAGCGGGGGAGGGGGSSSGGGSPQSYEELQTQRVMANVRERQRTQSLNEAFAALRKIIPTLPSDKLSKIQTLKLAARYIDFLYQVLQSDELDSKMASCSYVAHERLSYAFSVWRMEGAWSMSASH
UniProt Q13263: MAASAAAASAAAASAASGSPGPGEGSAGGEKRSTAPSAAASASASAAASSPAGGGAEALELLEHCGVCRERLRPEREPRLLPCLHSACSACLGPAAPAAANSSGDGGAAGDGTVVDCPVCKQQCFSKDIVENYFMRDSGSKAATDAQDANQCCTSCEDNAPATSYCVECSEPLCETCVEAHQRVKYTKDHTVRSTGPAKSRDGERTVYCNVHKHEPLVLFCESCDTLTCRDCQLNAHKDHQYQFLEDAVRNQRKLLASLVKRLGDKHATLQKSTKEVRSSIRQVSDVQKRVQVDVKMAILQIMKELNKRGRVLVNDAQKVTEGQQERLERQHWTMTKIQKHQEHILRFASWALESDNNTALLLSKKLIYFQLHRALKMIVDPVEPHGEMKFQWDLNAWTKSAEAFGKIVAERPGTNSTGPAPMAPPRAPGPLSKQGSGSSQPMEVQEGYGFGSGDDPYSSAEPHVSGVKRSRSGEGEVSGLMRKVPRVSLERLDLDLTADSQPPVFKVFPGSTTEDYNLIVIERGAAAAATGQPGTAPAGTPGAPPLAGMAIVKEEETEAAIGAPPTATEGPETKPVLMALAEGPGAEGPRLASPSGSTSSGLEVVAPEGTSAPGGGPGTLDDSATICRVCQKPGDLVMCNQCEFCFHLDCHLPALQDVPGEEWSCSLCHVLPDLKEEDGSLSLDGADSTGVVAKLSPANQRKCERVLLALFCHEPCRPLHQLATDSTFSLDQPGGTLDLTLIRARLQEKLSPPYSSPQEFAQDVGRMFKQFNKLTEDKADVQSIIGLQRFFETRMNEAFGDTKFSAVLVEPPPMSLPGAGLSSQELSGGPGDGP

binding [1]	binding [2]	Substance
binds	–	35S-labeled TRIM28 protein, in vitro translated (from UniProt Q13263 1-835)
–	binds	Tripartite motif containing 28 (TRIM28), endogenous in HEK293 cells (from UniProt Q13263 1-835)

— publication PMC4944148
